# Assay results from PubChem BioAssay AID504467 (National Center for Advancing Translational Sciences (NCATS), 2011).
# The campaign covered roughly 330,000 compounds. About 7,700 (2.3%) were called active. Inconclusive means that the source gave no clear call. Such entries were picked first, then a sample of the others. Calls come from the whole dose curve; as a rule, active = well fitted inhibition curve with a large enough effect; inconclusive = small, poorly fitted or top-dose-only effect, or effect the other way; inactive = flat fitted curve, though single readings scatter. A potency beside an inconclusive call is a rough fit, not a confirmed value.
# Assay: qHTS screen for small molecules that inhibit ELG1-dependent DNA repair in human embryonic kidney (HEK293T) cells expressing luciferase-tagged ELG1; note: nearly all actives have a fitted effect of over 55% in size
# Details: HEK293T ELG1-luciferase reporter, luminescence, 16 h, DNA damage induced by 5-fluorouridine; activity change, negative = inhibition: at 46.1 µM (top of the series)
# How it was run: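 In this reporter screen, reduction of luminescence relative to DMSO vehicle indicated activity. Compounds and 5-fluorouridine were added together to 2,000 cells per well, incubated for 16 hr at 37 °C, then developed with ONE-Glo.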
# % is set by controls: 0 for no effect and ±100 for the full control effect; potency is the fitted concentration of half-maximal effect.
SMILES,"activity change, negative = inhibition",Potency
Cc1cc(Cl)c(OCCN2C(=O)NC(C)(C)C2=O)c(Br)c1,inactive: 6.71%,–
Cc1cc(NS(=O)(=O)c2ccc(NC(=O)Cc3ccc([N+](=O)[O-])cc3)cc2)no1,inactive: 14.2%,–
O=C(c1ccc(F)cc1F)N1CCC(N2CCC(C(=O)N3CCOCC3)CC2)CC1,inactive: 8.03%,–
CCc1cccc(N=c2c([N+](=O)[O-])nn(-c3ccc4c(c3)OCCO4)n2O)c1,inactive: -6.24%,–
CCOc1cc(C)c(Cl)cc1S(=O)(=O)NCc1ccc2c(c1)OCO2,inactive: -22.3%,–
COc1ccccc1/C=C(/CC(=O)NCc1ccccc1)c1nc2ccccc2s1,–,"inconclusive: 32.6 µM [inhibitor, single point]"
Cc1cc(C)c2ccc(N)nc2c1O,–,"inconclusive: 29.1 µM [activator, single point]"
CCOc1ccccc1N1CCN(C(=S)Nc2ccc(S(N)(=O)=O)cc2)CC1,–,"inconclusive: 13 µM [inhibitor, partial curve, poor fit]"
CN(C)CCN(C(=O)/C=C/c1cccs1)c1nc2ccc(F)cc2s1,inactive: 11.7%,–
COc1ccc(-n2nc(C(=O)NCC(=O)Nc3cc(OC)c(OC)c(OC)c3)c3ccccc3c2=O)cc1,–,active: 3.26 µM
O=C(c1ccccc1C(=O)N1CCN(c2ccccc2F)CC1)N1CCN(c2ccccc2F)CC1,–,"inconclusive: 4.61 µM [inhibitor, single point]"
CCC(C)c1ccc(NC(=S)NCCn2cc(Br)cn2)cc1 (stereo not drawn),inactive: -3.75%,–
CN(C)c1ccc(C(=O)NNC(=O)c2ccc(Cl)cc2)cc1,–,"inconclusive: 11.6 µM [activator, partial curve, poor fit]"
CCOC(=O)C1=C2c3cc(OC)c(OC)cc3CC(C)(C)N2C(=O)C1=O,–,"inconclusive: 32.6 µM [activator, partial curve, poor fit]"
CCC/C(=N/NC(=O)c1ccc2c(c1)OCO2)c1cccs1,–,"inconclusive: 18.4 µM [activator, partial curve]"
COc1ccc(NC(=O)C2CCN(S(=O)(=O)c3cccc4nonc34)CC2)c(OC)c1,–,"inconclusive: 9.2 µM [inhibitor, partial curve, poor fit]"
CCN(CC)c1nc(Oc2ccc(C(=O)OC)cc2)nc(N2CCOCC2)n1,–,"inconclusive: 29.1 µM [inhibitor, single point]"
CC(=O)c1c(C)[nH]c(C(=O)OC2CCCCC2=O)c1C (stereo not drawn),–,"inconclusive: 17.8 µM [activator, single point]"
CC(C)(C)OC(=O)N1CCN(c2ccc(CNC(=O)c3ccc(Cl)cc3)cc2)CC1,–,"inconclusive: 9.2 µM [inhibitor, partial curve, poor fit]"
CCN(C[C@H]1N[C@@](C)(C(=O)OC)[C@H]2C(=O)N(Cc3ccccc3)C(=O)[C@@H]12)S(=O)(=O)c1ccc(C(C)(C)C)cc1,inactive: -2.56%,–
CCOc1cc(C(=S)N2CCCCC2)ccc1OS(=O)(=O)c1ccc(Br)cc1,inactive: -2.15%,–
O=C(Nc1ccccc1O)c1ccc2c(c1)C(=O)N(N1C(=O)c3ccccc3C1=O)C2=O,inactive: -1.85%,–
CCC(=O)Nc1ccc(C=C(C(C)=O)C(C)=O)cc1,–,"inconclusive: 20.6 µM [activator, single point]"
Cc1ccc(CSCCNC(=O)CSCc2ccc([N+](=O)[O-])cc2)cc1,inactive: 0.73%,–
CS(=O)(=O)CCC(C(=O)N1CCOCC1)N1C(=O)c2cc(Cl)c(Cl)cc2C1=O (stereo not drawn),inactive: 20.7%,–

# 3 records drawn at random from those above:
SMILES,"activity change, negative = inhibition",Potency
CCOc1cc(C(=S)N2CCCCC2)ccc1OS(=O)(=O)c1ccc(Br)cc1,inactive: -2.15%,–
CC(C)(C)OC(=O)N1CCN(c2ccc(CNC(=O)c3ccc(Cl)cc3)cc2)CC1,–,"inconclusive: 9.2 µM [inhibitor, partial curve, poor fit]"
CC(=O)c1c(C)[nH]c(C(=O)OC2CCCCC2=O)c1C (stereo not drawn),–,"inconclusive: 17.8 µM [activator, single point]"

# Later entries

SMILES,"activity change, negative = inhibition",Potency
COc1cccc(C(=O)COc2cccc(NC(=O)c3cccc([N+](=O)[O-])c3)c2)c1,–,active: 13 µM
Cc1cc(Br)ccc1OCCOCCN1CCCC1,inactive: -0.0401%,–
CSCCC(NC(=O)c1ccco1)C(=O)N1CC=C(c2ccccc2)CC1 (stereo not drawn),inactive: -14.5%,–
Cc1ccccc1SCC(=O)OCC(=O)N(C)c1c(N)n(Cc2ccccc2)c(=O)[nH]c1=O,inactive: 10.2%,–
CCc1ccc(S(=O)(=O)ON2C(=O)c3ccccc3C2=O)cc1,–,"inconclusive: 23.1 µM [activator, partial curve, poor fit]"
CCOc1cccc2cc(C(=O)NCc3ccc(Cl)cc3)c(=N)oc12,–,"inconclusive: 11.6 µM [activator, partial curve, poor fit]"
C/C(=N\NC(=O)CO/N=C(\C)c1cccs1)c1ccc(N)cc1,inactive: 4.07%,–
COc1ccc(C)cc1-n1nnnc1SCC(=O)Nc1cc(C)on1,–,"inconclusive: 14.6 µM [inhibitor, partial curve]"
COc1ccc(CCn2c(C)cc(C(=O)CSc3nnnn3-c3ccccc3)c2C)cc1OC,–,"inconclusive: 14.6 µM [inhibitor, partial curve]"
C=CCNC(=O)c1onc(CSc2cc(C)cc(C)c2)c1C(=O)NCC=C,–,"inconclusive: 13 µM [inhibitor, partial curve]"
CN1CC=C2C(C#N)=C(N)C(C#N)(C#N)[C@H](c3cccs3)[C@H]2C1,inactive: -11.3%,–
O=C(CN1CCN(S(=O)(=O)c2ccc3ccccc3c2)CC1)Nc1ccc2c(c1)CCC2,–,"inconclusive: 18.4 µM [inhibitor, partial curve]"
Cc1ccc(-c2cc(C(=O)N3CCCC3)c3ccccc3n2)s1,–,"inconclusive: 23.1 µM [activator, single point]"
CCOC(=O)c1sc2nc(N3CCOCC3)c3c(c2c1N)CCCC3,inactive: -21.7%,–
Cc1csc(SCC(=O)Nc2ccc3c(c2)OCCO3)n1,–,"inconclusive: 20.6 µM [activator, partial curve]"
NNc1nc2c(Cl)ccc(Cl)c2s1,inactive: -0.247%,–
CC(=O)c1cccc(CN(C)CC2CCCN(CCc3ccccc3C)C2)c1 (stereo not drawn),inactive: -8.81%,–
O=C(CSc1nnc(-c2ccccc2Br)o1)Nc1cccc2ccccc12,–,"inconclusive: 18.4 µM [activator, single point]"
Cc1ccc(S(=O)(=O)N2CCN(Cc3cc(=O)n4ccccc4n3)CC2)c(C)c1,–,active: 7.3 µM
CC1CCCN(C2=NC(=O)/C(=C/c3cn(-c4ccccc4)nc3-c3cccc(S(=O)(=O)N(C)C)c3)S2)C1 (stereo not drawn),–,"inconclusive: 2.31 µM [inhibitor, full curve]"
CCc1ccccc1NC(=O)C/C(C)=N/NC(=O)COc1ccccc1C,inactive: 12.2%,–
O=C(Nc1ccccc1)c1cnc2ccccc2n1,–,"inconclusive: 18.4 µM [activator, partial curve]"
CC(=O)NCCc1nc2ccccc2n1CCc1ccccc1,inactive: 28.4%,–
Cc1ccc(N2C(=O)CC(NCc3ccc4c(c3)OCO4)C2=O)cc1Cl (stereo not drawn),–,"inconclusive: 18.4 µM [activator, single point]"
COc1cc(C(=O)NC(=S)Nc2ccccc2N2CCCC2)cc(OC)c1OC,–,active: 2.59 µM

SMILES,"activity change, negative = inhibition",Potency
CC(C)(CC(=O)O)Cc1nc(-c2ccc(Cl)cc2)no1,–,"inconclusive: 18.4 µM [activator, single point]"
Cc1ccnc(NC(=O)c2ccccc2[N+](=O)[O-])c1,–,"inconclusive: 29.1 µM [activator, single point]"
COCCn1c(=NC(=O)CSC(C)=O)sc2cc(F)ccc21,inactive: 0%,–
COc1ccc(N(C)S(=O)(=O)c2cccc(C(=O)Nc3ccc(OC)nc3)c2)cc1,–,active: 18.4 µM
CC1CCCCN1C(=O)CN1CCN(S(=O)(=O)c2ccc(Br)cc2Cl)CC1 (stereo not drawn),–,"inconclusive: 20.6 µM [inhibitor, single point]"
CCCN(CC1CC1)S(=O)(=O)c1ccc(-n2cnnn2)c(OC)c1,–,"inconclusive: 3.66 µM [activator, partial curve, poor fit]"
COc1ccc(C)cc1NC(=O)C(Sc1nnnn1C)c1ccccc1 (stereo not drawn),inactive: -2.02%,–
CC(Sc1ccc2c(c1)OCCO2)C(=O)Nc1ccc(N2CCOCC2)cc1 (stereo not drawn),–,"inconclusive: 25.9 µM [activator, single point]"
Cc1ccc(N(C)S(=O)(=O)c2ccc(-c3cnc(C4CC4)o3)cc2)cc1,inactive: 5.65%,–
O=C(c1ccc(Cl)s1)N1CCN(c2ncccn2)CC1,inactive: -5.96%,–
O=C(CCc1nc2ccccc2c(=O)[nH]1)Nc1ccc(F)c([N+](=O)[O-])c1,–,"inconclusive: 23.1 µM [activator, single point]"
COc1cc(/C=N/Nc2ccc(Cl)c(C(=O)O)c2)ccc1OC(=O)c1cccs1,–,"inconclusive: 18.3 µM [activator, single point]"
O=c1c2c(n3cnnc3n1-c1ccccc1)-c1ccccc1CC21CCCC1,inconclusive: 6.97% [activator],–
Cc1oc(-c2ccc(-c3ccccc3)cc2)nc1CN1CCN(CC(=O)N(C)C)CC1,–,"inconclusive: 2.31 µM [activator, full curve]"
O=S1(=O)CCC(=Nc2ccc(Cl)cc2)c2ccsc21,inactive: -8.45%,–
Cc1cc(N/N=C/c2ccc([N+](=O)[O-])o2)nc2ccccc12,inactive: -24.8%,–
O=C(CSc1nnc(NC(=O)c2ccco2)s1)Nc1ccc(F)cc1,–,"inconclusive: 16.4 µM [activator, partial curve]"
CC(C)c1cc2cc3ccc(=O)oc3cc2o1,–,"inconclusive: 18.3 µM [activator, partial curve]"
c1c(CC2CCCC2)nnn1C[C@H]1CC[C@@H]([C@@H]2CC[C@H](Cn3cc(CC4CCCC4)nn3)O2)O1,inactive: 5.3%,–
CCOC(=O)C1CCCN(c2c(NCCc3ccccc3)c(=O)c2=O)C1 (stereo not drawn),–,"inconclusive: 18.3 µM [activator, partial curve, poor fit]"
Cn1c(SCC(=O)c2ccc(O)cc2O)nnc1-c1ccccc1,inactive: 25%,–
Cn1nnnc1SCC(=O)Nc1nc(-c2ccccc2)c(-c2ccccc2)o1,–,"inconclusive: 18.4 µM [activator, single point]"
COc1ccc(C(=O)NN/C(=N/S(=O)(=O)c2ccc(C)cc2)c2ccccc2)cc1,–,"inconclusive: 6.51 µM [activator, partial curve]"
